Measured values published in paper PMC10746232.

Legend:
[1] = target: TgCOPI-δ^myc (Toxoplasma gondii (endogenous in RH tachyzoites)); assay: co-IP; myc-tagged bait (TgCOPI-δ^myc, TgSec31^myc or Tg289120^myc) isolated on α-Myc magnetic beads from parasites co-expressing endogenous TgCog3^AID-HA or TgCog7^AID-HA; western blot with α-HA and α-myc; extraction in PBS with 263 mM NaCl, 1% Triton X-100
[2] = target: TgSec31^myc (Toxoplasma gondii (endogenous in RH tachyzoites)); assay: as above

B1: TgCog7^AID-HA (protein, UniProt S8FAE0 1-1223)
chain: MASPVPKPPEGALPGSPLPSSNSSSSASLQSSAVSAAFNALSAPTFSAGAWLDACIERSLEQQAFEAPPVASSSLASSPETETARLADRLESTLESVLAEVQRRIATTFEALDTKSQDLSSAAPTYVKQVEELSGKLVDARRTVDDALKALSCVDFEHQESLRRLAALDALRRHFHRCRRVLLVLHQWDFRVGEIELLLHSFQHQETPLIANPASSVDGTPFHPHQPSQGQGLSDDADASTFSSSSFSSSASSASSASSASSSSSSSAFEHAASTARLRSLAQAAMHAAALKNAVQELKAFGEFSARVRAAELLEKRVVVVTRSLMRSAFLSGDAESLRVAMNISVTLNHSAQLQQELSKCFGDQLRQAWLATWARTPAGRRRREAEVAAGACWALAPNERLHGERELYAEEQGDGFPREEADACGDDASVEKEQRTIGEPEALLLYFEEFTRLLEERSSLLRLFADELSQAEIRALRASSDDASSTSSCSSAAHSASSSSRSADPQGPFGCGRRGEEETSGVAGAASQAPHRPLRLHRTASRLHTRVWEETLLLCLKVGGEAPNAEVEAFLAAGGADLEEDDEERMARIEKLLQTYDMGFTLLSATPVVAESEPHIPQLWRKISSTCLFFPALLLRQFNAALWKSSRRFFLQDAPSVRPFDKRQAPSQVVMELEGRLDRTLQRLSSPALAALSPGAFHLCLAPCLLSAVDDAVAEFLSSLSPVLQTFAHTIQYKTQSIQDTQNRERERDLPARGNAGDFLPLDVLPTSLPFDLSLLNACMQQYLLFASAQQKLAQGAAVVFDEALTGHRRHSRFNVYLRELTNLHPDLLVYPSPSAVAHSASLLPSSCSSSFSAPPLPSVLPASFAAYTKLRHASRALVLLACSAPCSLFLHRFYPLCWGAISVSSSAQRAESLLREQRESINGQESKAILPSSVSTAAGEFFLQLLPHLEVAAAGAKGSEKRETEVESSDESLIAGLLSVVFTSFCRALLVADLPTRLTKEEPVQRGELRENMLLQLQADARYLASLSRSLGYDPEEESSFLFFETESGEGSEKARDAQADKQDQQTKDEERESSDLGETKKEEKDEAVRQERKRGPTWMIGLLLRGLDALLGTAEGETSAEPSAAKREEIKNNADENSSSLGCLGAFEAHLRRKFAREKNETKGESPSDSERVRAARAVAAAALESPSSDLCKSEKEKEDEEVTLVWAVLCQLGVFPSPL
Question: B1 was tested. Which binding [1] did it give?
Answer: binds

Question: What about the binding [2] of the same binder?
Answer: binds

These are yes or no findings as the source states them, for the method shown. Binding seen in cells or lysates may run through a third protein. Binding calls can cover weak binding; strength is not graded here. Sequences can lack the tags named with a protein.
